Measurements taken from publication PMC11605229.
Results are given in words; binding and its absence hold for the method and conditions named. Binding seen in cells or lysates may run through a third protein. Here binding means that the protein was enriched with, or labelled near, the bait; the list need not be complete.

Target: BioID-BAG3, O95817
Assay: proximity labelling; BioID in human AC16 cardiomyocyte cells: transfected with plasmid expressing BioID-BAG3 for 48 h, biotin for 16 h; LC-MS/MS; BAG3_Biotin vs. BioID vector only, adjusted p < 0.05; effect sizes corrected for biotin alone and for BAG3 over-expression; three replicates
Conditions: remark: other sources report otherwise

B1: LMNA, P02545 1-646 (protein)
chain: METPSQRRATRSGAQASSTPLSPTRITRLQEKEDLQELNDRLAVYIDRVRSLETENAGLRLRITESEEVVSREVSGIKAAYEAELGDARKTLDSVAKERARLQLELSKVREEFKELKARNTKKEGDLIAAQARLKDLEALLNSKEAALSTALSEKRTLEGELHDLRGQVAKLEAALGEAKKQLQDEMLRRVDAENRLQTMKEELDFQKNIYSEELRETKRRHETRLVEIDNGKQREFESRLADALQELRAQHEDQVEQYKKELEKTYSAKLDNARQSAERNSNLVGAAHEELQQSRIRIDSLSAQLSQLQKQLAAKEAKLRDLEDSLARERDTSRRLLAEKEREMAEMRARMQQQLDEYQELLDIKLALDMEIHAYRKLLEGEEERLRLSPSPTSQRSRGRASSHSSQTQGGGSVTKKRKLESTESRSSFSQHARTSGRVAVEEVDEEGKFVRLRNKSNEDQSMGNWQIKRQNGDDPLLTYRFPPKFTLKAGQVVTIWAAGAGATHSPPTDLVWKAQNTWGCGNSLRTALINSTGEEVAMRKLVRSVTVVEDDEDEDGDDLLHHHHGSHCSSSGDPAEYNLRSRTVLCGTCGQPADKASASGSGAQVGGPISSGSSASSVTVTRSYRSVGGSGGGSFGDNLVTRSY
- binding: binds
